One experiment concerns the target T1, FLAG-tagged BEND5 (UniProt Q7L4P6).
T1 sequence: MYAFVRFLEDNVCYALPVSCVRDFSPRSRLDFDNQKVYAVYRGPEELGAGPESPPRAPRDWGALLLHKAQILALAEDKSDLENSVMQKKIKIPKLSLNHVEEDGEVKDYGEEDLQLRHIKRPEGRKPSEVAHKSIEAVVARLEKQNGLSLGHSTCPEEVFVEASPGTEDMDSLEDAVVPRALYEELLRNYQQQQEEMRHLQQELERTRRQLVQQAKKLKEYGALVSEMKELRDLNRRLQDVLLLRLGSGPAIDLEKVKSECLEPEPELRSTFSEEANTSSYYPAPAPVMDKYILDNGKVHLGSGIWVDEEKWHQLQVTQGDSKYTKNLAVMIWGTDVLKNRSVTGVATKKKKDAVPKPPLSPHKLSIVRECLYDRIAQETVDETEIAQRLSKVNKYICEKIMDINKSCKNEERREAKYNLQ
The experiment can be described thus: co-IP; HEK293T co-transfected with MYC-RBPJ and FLAG-BEND5 or FLAG-BEND5 △BEN; lysates immunoprecipitated with anti-FLAG agarose overnight at 4 °C, immunoblot with anti-MYC. (In general: A western blot detects proteins with antibodies after separation by electrophoresis.)

The chains behind the UniProt entries cited, without tags or fusion partners.
UniProt Q06330: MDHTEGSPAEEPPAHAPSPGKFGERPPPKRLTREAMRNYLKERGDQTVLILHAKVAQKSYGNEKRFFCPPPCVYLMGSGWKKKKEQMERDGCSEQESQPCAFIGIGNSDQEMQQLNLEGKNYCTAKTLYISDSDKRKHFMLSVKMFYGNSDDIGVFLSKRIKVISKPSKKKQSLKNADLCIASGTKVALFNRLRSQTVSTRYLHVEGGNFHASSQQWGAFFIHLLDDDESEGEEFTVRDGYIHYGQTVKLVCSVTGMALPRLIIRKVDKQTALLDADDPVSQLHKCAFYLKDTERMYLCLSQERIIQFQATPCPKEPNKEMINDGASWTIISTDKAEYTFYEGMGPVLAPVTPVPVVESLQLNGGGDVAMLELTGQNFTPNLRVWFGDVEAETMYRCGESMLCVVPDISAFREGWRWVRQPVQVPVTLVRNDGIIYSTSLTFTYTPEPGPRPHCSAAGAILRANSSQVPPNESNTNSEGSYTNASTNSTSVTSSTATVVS

The target in experiment [1] is T2, BEN domain containing 5 (BEND5), endogenous (human (endogenous in MDA-MB-231 and ZR75-1)) (UniProt Q7L4P6).
T2 sequence: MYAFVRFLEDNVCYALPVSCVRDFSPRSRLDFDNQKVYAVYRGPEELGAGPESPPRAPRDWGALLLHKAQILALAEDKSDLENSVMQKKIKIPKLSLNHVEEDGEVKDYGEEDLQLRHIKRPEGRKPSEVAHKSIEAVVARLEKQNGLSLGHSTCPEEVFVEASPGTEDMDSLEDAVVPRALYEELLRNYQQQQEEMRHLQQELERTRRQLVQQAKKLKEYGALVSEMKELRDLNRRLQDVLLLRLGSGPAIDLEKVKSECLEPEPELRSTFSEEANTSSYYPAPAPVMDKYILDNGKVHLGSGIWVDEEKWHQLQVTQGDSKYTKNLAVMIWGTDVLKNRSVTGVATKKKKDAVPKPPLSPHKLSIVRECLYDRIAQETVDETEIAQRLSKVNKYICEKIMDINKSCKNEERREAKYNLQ
The experiment can be described thus: co-IP; endogenous proteins; MDA-MB-231 or ZR75-1 protein extract immunoprecipitated with anti-BEND5 or normal IgG, immunoblot with the indicated antibodies.

For a further experiment, the target named is MYC-tagged RBPJ (UniProt Q06330). The experiment can be described thus: co-IP; HEK293T co-transfected with FLAG-BEND5 and MYC-RBPJ or its deletion mutants; lysates immunoprecipitated with anti-MYC agarose overnight at 4 °C, immunoblot with anti-FLAG.

In paper PMC9274485 one finds binding data, which are given here for three molecules.

No constants are given. Whether binding was seen depends on the method and setting. In cells and extracts the contact can be indirect. Some results given as binding are weak or reduced against the parent protein; the word gives no strength. For part of these data: Sequences can lack the tags named with a protein.

In the case of “MYC-tagged RBPJ (from UniProt Q06330 1-500)”, the binding result in the experiment with FLAG-tagged BEND5 was “binds”.

In the case of “recombination signal binding protein for immunoglobulin kappa J region (RBPJ), endogenous (from UniProt Q06330 1-500)”, the binding entry in experiment [1] is “binds”.

B1: FLAG-tagged BEND5 (protein, UniProt Q7L4P6 1-421)
chain: MYAFVRFLEDNVCYALPVSCVRDFSPRSRLDFDNQKVYAVYRGPEELGAGPESPPRAPRDWGALLLHKAQILALAEDKSDLENSVMQKKIKIPKLSLNHVEEDGEVKDYGEEDLQLRHIKRPEGRKPSEVAHKSIEAVVARLEKQNGLSLGHSTCPEEVFVEASPGTEDMDSLEDAVVPRALYEELLRNYQQQQEEMRHLQQELERTRRQLVQQAKKLKEYGALVSEMKELRDLNRRLQDVLLLRLGSGPAIDLEKVKSECLEPEPELRSTFSEEANTSSYYPAPAPVMDKYILDNGKVHLGSGIWVDEEKWHQLQVTQGDSKYTKNLAVMIWGTDVLKNRSVTGVATKKKKDAVPKPPLSPHKLSIVRECLYDRIAQETVDETEIAQRLSKVNKYICEKIMDINKSCKNEERREAKYNLQ
Turning to B1, the binding result with MYC-tagged RBPJ was “binds”.
